# PubChem BioAssay AID2685 (National Center for Advancing Translational Sciences (NCATS), 2010)
# Some of the results follow. Further columns of the screen follow, without active or inactive calls. The list favours compounds with an active or inconclusive main result. The note in brackets gives the kind of curve behind each potency; many fits are weak.
# Assay: qHTS Assay for Lipid Storage Modulators in Drosophila S3 Cells;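 for cell number change: cells counted by Cell Tracker Red CMTPX staining in the red channel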
# Conditions: BODIPY lipid droplet fluorescence, 18-24 h; for cell number change: measured here: cell count max response, cells fed with added oleic acid
# Procedure, shortened: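 Drosophila S3 cells loaded with oleic acid (400 uM, as added) and compounds at several concentrations; lipid droplets imaged by 488-nm laser-scanning cytometry, 500–530 nm intensity and object ratio to cell channel. Percent activity normalized to 20 uM Triacsin C.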
# [1] = measured here: lipid fluorescence (Fed channel) AC50, cells fed with added oleic acid
# [2] = measured here: cell number channel AC50, cells fed with added oleic acid
SMILES,cell number change,AC50 [1],AC50 [2]
COc1cc2c(cc1OC)C(=O)N1[C@H]3c4ccccc4OC[C@@H]3[C@H](c3ccccc3)[C@]1(C)C(=O)N2,16.5%,"16.4 µM [rising, single point]",
COc1cc(/C=N/NC(=O)CCc2c(C)n[nH]c2C)ccc1O,26.3%,"29.1 µM [rising, single point]",
O=C(Cc1c(Cl)cccc1Cl)Nc1ccncc1,-2.83%,"0.58 µM [falling, single point]",
Cn1c(=O)c2c(ncn2CC(=O)OCC(=O)Nc2ccccc2)n(C)c1=O,29.5%,"0.206 µM [rising, full curve, poor fit]",
COc1cccc(CC(=O)N2CCCC(CCC(=O)N3CCN(c4ccccn4)CC3)C2)c1 (configuration not stated),-24.2%,"29.1 µM [falling, single point]",
COc1cc(/C=N/NC(=O)c2ccc(NC(=O)C3CC3)cc2)ccc1OC(C)=O,59.9%,,"20.6 µM [rising, partial curve]"
FC(F)(F)c1ccccc1Nc1nccs1,36.5%,,"25.9 µM [rising, single point]"
CCC(C)NC(=O)C1CCN(CCCc2ccccc2)CC1 (configuration not stated),2.27%,,
O=C(COc1ccccc1)N/N=C/c1ccc2c(c1)OCO2,46.2%,,"20.6 µM [rising, single point]"
Cc1ccc2nc(NC(=O)c3ccc(N4C(=O)CCC4=O)cc3)sc2c1,17.3%,,
Cc1cccc(CN2C[C@]34CC[C@@H](C[C@@H]3S2(=O)=O)O4)c1,,"3.66 µM [falling, full curve]",
CC(C)c1ccccc1N1CC(C(=O)O)CC1=O (configuration not stated),12.1%,"29.1 µM [falling, partial curve]",
CCC(=O)Nc1ccccc1Oc1ccccc1,1.46%,"0.461 µM [rising, partial curve]",
Cc1cc2ncc(S(=O)(=O)C(C)(C)C)c(N)n2n1,26.2%,"32.6 µM [rising, single point]",
COc1ccc(NC(=O)CCCn2c(=O)c3sccc3n(Cc3cccc(C)c3)c2=O)cc1,,"0.461 µM [rising, full curve]",
C#CCNC(=O)C1=C[C@@H](c2coc3ccccc3c2=O)[C@H](CCCO)[C@@H](OCC)O1,-3.31%,"29.1 µM [falling, single point]",
Cc1ccccc1N(C(=O)CS(=O)CC(=O)Nc1ccc(F)cc1)C(C)C(=O)NC(C)(C)C (configuration not stated),24.4%,"29.1 µM [rising, single point]",
CCN(C(=S)NCCOC)c1cccc2ccccc12,2.36%,"0.794 µM [falling, full curve, poor fit]",

# Another view of part of the listing above:
SMILES | cell number change | AC50 [1] | AC50 [2]
FC(F)(F)c1ccccc1Nc1nccs1 | 36.5% |  | 25.9 µM [rising, single point]
CCC(C)NC(=O)C1CCN(CCCc2ccccc2)CC1 (configuration not stated) | 2.27% |  | 
